{"sequences": {"note": "Chains of the proteins cited; added tags and fusions are not shown. Lines headed by an entry give the natural chain unless they say otherwise; changes in a name come on top.", "UniProt P18054": "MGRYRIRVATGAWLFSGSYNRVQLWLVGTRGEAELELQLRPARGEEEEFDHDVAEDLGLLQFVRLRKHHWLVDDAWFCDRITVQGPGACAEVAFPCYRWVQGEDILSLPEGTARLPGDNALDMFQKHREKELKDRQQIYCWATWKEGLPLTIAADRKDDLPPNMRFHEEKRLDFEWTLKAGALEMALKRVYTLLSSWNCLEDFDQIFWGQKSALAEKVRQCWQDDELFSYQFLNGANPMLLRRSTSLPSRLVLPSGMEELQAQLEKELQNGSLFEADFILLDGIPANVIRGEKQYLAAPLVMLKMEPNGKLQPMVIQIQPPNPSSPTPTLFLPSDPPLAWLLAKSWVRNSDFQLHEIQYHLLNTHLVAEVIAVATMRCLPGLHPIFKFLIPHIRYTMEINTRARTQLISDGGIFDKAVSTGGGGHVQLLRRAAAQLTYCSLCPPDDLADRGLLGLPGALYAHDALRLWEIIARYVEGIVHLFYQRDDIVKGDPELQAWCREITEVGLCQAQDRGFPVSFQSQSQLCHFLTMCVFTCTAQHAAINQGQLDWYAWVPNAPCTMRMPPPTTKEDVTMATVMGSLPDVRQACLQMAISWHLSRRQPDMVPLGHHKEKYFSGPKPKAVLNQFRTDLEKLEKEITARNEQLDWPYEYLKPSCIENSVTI"}, "source": "PubChem BioAssay AID1671190", "about": "(National Center for Advancing Translational Sciences (NCATS), 2021)", "note": "Out of some 580,000 compounds screened, about 6,100 (1.1%) were called active. Inconclusive means that the source gave no clear call. Such entries were picked first, then a sample of the others. The call rests on the fitted dose curve; in most records, active means well fitted inhibition curve with a large enough effect; inconclusive means small, poorly fitted or top-dose-only effect, or another doubt; inactive means no such curve, though single readings can be large or run the other way. Where the call is inconclusive, the potency comes from a doubtful curve fit. Potency means the concentration at half of the fitted maximal effect.", "data": [{"target": "Polyunsaturated fatty acid lipoxygenase ALOX12 (Homo sapiens) (UniProt P18054)", "experiment": "Primary qHTS assay for inhibitors of human arachidonate 12S-lipoxygenase (ALOX12): Round 2", "settings": "purified 12hLO, xylenol orange hydroperoxide absorbance; series mostly up to 108 µM", "in_short": "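Hydroperoxide product was detected by ferrous iron/xylenol orange as the 573 to 405 nm absorbance ratio. Arachidonic acid at 40 uM (final) was turned over for 30 min at room temperature by 150 nM human 12hLO, pH 7.0 Hepes buffer, after 15 min compound preincubation.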", "values": [{"smiles": "O=C(NCc1ccc(F)cc1)c1cccc(S(=O)(=O)N2CCCC2)c1", "Potency": "inconclusive: 50.1 µM [inhibitor, partial curve, poor fit]"}, {"smiles": "COc1cc(/C=N/Nc2ccccc2[N+](=O)[O-])ccc1OC(=O)c1ccccc1F", "Potency": "inactive"}, {"smiles": "O=C(c1cn[nH]c1)N1CCc2c([nH]c3ccccc23)C1c1c(F)cccc1Cl", "note": "(configuration not stated)", "Potency": "inconclusive: 89.1 µM [inhibitor, partial curve, poor fit]"}, {"smiles": "O=C(C[n+]1cc(-c2ccccc2)n2c1CCC2)N1c2ccccc2Sc2ccccc21", "Potency": "inconclusive: 63.1 µM [inhibitor, partial curve, poor fit]"}, {"smiles": "Cc1cc2nc(-c3ccc(C#N)cc3)c(Cc3cccc(F)c3)n2c(C)c1Br", "Potency": "inconclusive: 17.8 µM [inhibitor, partial curve, poor fit]"}, {"smiles": "C=CC[n+]1c(/C=C/c2ccc(OC(C)=O)c(OC)c2)ccc2ccccc21", "Potency": "inconclusive: 89.1 µM [inhibitor, partial curve, poor fit]"}, {"smiles": "CC(C)n1cc(CN2CCC(Oc3ccc(C(=O)N4CCCC4)cc3)CC2)cn1", "Potency": "inactive"}, {"smiles": "CCCn1c(SCc2ccccc2Cl)nc2c1c(=O)[nH]c(=O)n2C", "Potency": "inconclusive: 50.1 µM [inhibitor, single point]"}, {"smiles": "CC(O)(c1cccnc1)c1nc(-c2ccc(F)c(Cl)c2)cs1", "note": "(configuration not stated)", "Potency": "inconclusive: 31.6 µM [inhibitor, partial curve, poor fit]"}, {"smiles": "CC(=O)Nc1cccc2cc(O)ccc12", "Potency": "inactive"}, {"smiles": "COc1ccccc1CNC(=O)Nc1cccs1", "Potency": "inconclusive: 3.55 µM [inhibitor, full curve, poor fit]"}, {"smiles": "N#C/C(=C(/O)COC(=O)c1ccccc1O)c1nc2ccccc2s1", "Potency": "inconclusive: 112 µM [inhibitor, partial curve, poor fit]"}, {"smiles": "Cc1ccc(N2CCC(NC(=O)c3ccc(N(C)C)cc3)C2=O)cc1C", "note": "(configuration not stated)", "Potency": "inconclusive: 44.7 µM [inhibitor, partial curve]"}, {"smiles": "CCc1nnsc1C(=O)N(C)CCOc1ccccc1F", "Potency": "inconclusive: 25.1 µM [inhibitor, single point]"}, {"smiles": "Fc1ccccc1Sc1ccccc1CNC1=NCCN1", "Potency": "inconclusive: 6.31 µM [inhibitor, full curve, poor fit]"}, {"smiles": "CCOc1ccc(NC(=O)C2Cn3cccc3C(=O)N2)cc1", "note": "(configuration not stated)", "Potency": "inactive"}, {"smiles": "COc1ccc(C2=C(O)C(=O)N(Cc3ccncc3)C2c2ccc(Br)cc2)cc1", "note": "(configuration not stated)", "Potency": "inconclusive: 44.7 µM [inhibitor, full curve, poor fit]"}, {"smiles": "CCN(CC)CCNC(=O)c1ccc2nc(-c3ccccc3)c(-c3ccc(CN4CCC(n5c(=O)[nH]c6ccccc65)CC4)cc3)nc2c1", "Potency": "inconclusive: 0.968 µM [inhibitor, full curve, poor fit]"}, {"smiles": "Cc1c(C(=O)NNC(=O)c2ccccc2O)oc2ccc(Br)cc12", "Potency": "inconclusive: 39.8 µM [inhibitor, partial curve]"}, {"smiles": "CC(SCc1ccccc1)C(=O)N(CC#N)C1CC1", "note": "(configuration not stated)", "Potency": "inactive"}, {"smiles": "COc1ccc(NC(=O)C2(C)Cc3c(-c4cccc(NC(C)=O)c4)ccnc3O2)cn1", "note": "(configuration not stated)", "Potency": "inconclusive: 0.0794 µM [inhibitor, full curve, poor fit]"}, {"smiles": "C=C(C)c1cccc(C(C)(C)NC(=O)Nc2ccc(C)cn2)c1", "Potency": "inactive"}, {"smiles": "Cc1ccc(S(=O)(=O)N2CCC(C(=O)OCc3ccccc3)CC2)cc1C", "Potency": "inconclusive: 39.8 µM [inhibitor, partial curve]"}, {"smiles": "Cc1ccc(-c2ccc(C=O)o2)cc1C", "Potency": "inconclusive: 112 µM [inhibitor, partial curve, poor fit]"}, {"smiles": "COc1ccc(S(=O)(=O)N(C)C[C@H]2Oc3ncc(-c4ccncc4)cc3C(=O)N([C@@H](C)CO)C[C@@H]2C)cc1", "Potency": "inactive"}, {"smiles": "C/C(=N\\NC(=S)NCCc1ccccc1)c1cccs1", "Potency": "active: 44.7 µM"}, {"smiles": "COc1ccc(-n2nc(C(=O)O)c3ccccc3c2=O)c(OC)c1", "Potency": "inactive"}, {"smiles": "CN(C)CCCN(Cc1ccc2c(c1)OCO2)C(=O)NC1CCCCC1", "Potency": "inconclusive: 2.82 µM [inhibitor, full curve, poor fit]"}, {"smiles": "Cn1c(=O)n(Cc2ccc(F)cc2)c(=O)c2c1nc1n2CCCN1Cc1ccccc1", "Potency": "inactive"}, {"smiles": "COC(=O)C1CCN(C(=O)Cn2nc(C(=O)O)c3ccccc3c2=O)CC1", "Potency": "inactive"}, {"smiles": "CC(C)OCCCNC(=O)CC1CC2CCC1C2", "note": "(configuration not stated)", "Potency": "inconclusive: 44.7 µM [inhibitor, single point]"}, {"smiles": "O=C(c1ccco1)N1CCN(c2c(-c3ccccc3)c3cc(Cl)ccc3[nH]c2=O)CC1", "Potency": "inconclusive: 100 µM [inhibitor, partial curve, poor fit]"}, {"smiles": "CN=c1scc(-c2ccccc2F)n1/N=C/c1ccc(O)c(O)c1O", "Potency": "active: 35.5 µM"}, {"smiles": "COc1ccc(C2CC(C)(c3ccc(OC)cc3)Nc3ccccc3N2)cc1", "note": "(configuration not stated)", "Potency": "inconclusive: 50.1 µM [inhibitor, partial curve, poor fit]"}, {"smiles": "S=C(NCc1ccccc1)NC1CCCC1", "Potency": "inconclusive: 22.4 µM [inhibitor, partial curve, poor fit]"}, {"smiles": "CC(Oc1ccc2ccc(=O)oc2c1)C(=O)N1CCc2ccccc21", "note": "(configuration not stated)", "Potency": "inactive"}, {"smiles": "CCCN1C(=O)SC(CC(=O)Nc2ccc(Br)cc2)C1=O", "note": "(configuration not stated)", "Potency": "inconclusive: 44.7 µM [inhibitor, partial curve, poor fit]"}, {"smiles": "Cc1nc(N2CCCCC2)ncc1-c1cc(=O)[nH]c(N2CCc3ccccc3C2)n1", "Potency": "inactive"}, {"smiles": "Cc1cccc(N2C(=O)CC(c3c[nH]c4ccccc34)C2=O)c1", "note": "(configuration not stated)", "Potency": "inconclusive: 35.5 µM [inhibitor, full curve, poor fit]"}, {"smiles": "O=C(O)[C@H](Cc1ccccc1)NC(=O)[C@H]1O[C@@H](n2ccc(=O)[nH]c2=O)[C@H](O)[C@@H]1O", "Potency": "inconclusive: 1 µM [inhibitor, full curve, poor fit]"}, {"smiles": "CCOc1cc(N2CCOCC2)c(OCC)cc1NC(=O)Cn1cnnn1", "Potency": "inactive"}, {"smiles": "COCCc1noc(-c2ccc(N(C)Cc3ncc(C)[nH]3)nc2)n1", "Potency": "inactive"}, {"smiles": "CCOC(=O)c1sc(N)c(C(=O)OCC)c1C", "Potency": "inconclusive: 126 µM [inhibitor, single point]"}, {"smiles": "Cc1[nH]c2ccccc2c1C(=O)COC(=O)c1ccccc1O", "Potency": "inconclusive: 89.1 µM [inhibitor, partial curve, poor fit]"}, {"smiles": "Cc1ccc(CNC(=O)C(=O)c2cn(CC(=O)N3CCOCC3)c3ccccc23)cc1", "Potency": "inconclusive: 126 µM [inhibitor, single point]"}, {"smiles": "Cn1c(CCn2ccccc2=O)nc2cc(NS(=O)(=O)c3ccc(Cl)cc3)ccc21", "Potency": "inconclusive: 28.2 µM [inhibitor, partial curve, poor fit]"}, {"smiles": "CC(C)C[C@H]1CNC(=S)N1C[C@H]1CCCN1C[C@H](CC(C)C)N1C[C@H](CC(C)C)N(CCc2ccccc2)C1=S", "Potency": "inconclusive: 10 µM [inhibitor, partial curve, poor fit]"}, {"smiles": "CCc1cccc(C)c1NC(=O)C(CC)CC", "Potency": "inactive"}, {"smiles": "Cc1noc(C)c1CNC(=O)c1cc2c(s1)CCN(C(=O)c1ccc(Cl)cc1)C2", "Potency": "inactive"}, {"smiles": "FC(F)(F)c1cc(-c2ccco2)nc(NCCc2ccccc2)n1", "Potency": "inconclusive: 50.1 µM [inhibitor, partial curve, poor fit]"}, {"smiles": "CN1C(=O)C2(CCN(C(=O)c3cccc(Br)c3)C2)c2ccccc21", "note": "(configuration not stated)", "Potency": "inactive"}, {"smiles": "C/C(=N\\NC(=S)Nc1ccc(C)cc1)c1cc2ccccc2o1", "Potency": "active: 25.1 µM"}, {"smiles": "COC(=O)[C@]1(Cc2ccccc2)N[C@H](CN(C)C(=O)Nc2ccc(OC)cc2)[C@@H]2C(=O)N(C)C(=O)[C@@H]21", "Potency": "inconclusive: 70.8 µM [inhibitor, partial curve, poor fit]"}, {"smiles": "COc1cccc(N2CCN(CC(=O)NC(=O)NCc3ccco3)CC2)c1", "Potency": "inactive"}, {"smiles": "O=C(NN1C(=O)c2ccccc2NC1c1ccc([N+](=O)[O-])o1)c1ccc([N+](=O)[O-])cc1", "note": "(configuration not stated)", "Potency": "inconclusive: 28.2 µM [inhibitor, partial curve]"}, {"smiles": "COc1ccc(OCC(O)CN2CCCC2)cc1", "note": "(configuration not stated)", "Potency": "inactive"}, {"smiles": "O=C(CCS(=O)(=O)c1ccc(Br)cc1)NCCc1ccccc1", "Potency": "inconclusive: 25.1 µM [inhibitor, partial curve, poor fit]"}, {"smiles": "CC1CCCN(S(=O)(=O)c2ccc3oc(=O)ccc3c2)C1", "note": "(configuration not stated)", "Potency": "inconclusive: 39.8 µM [inhibitor, partial curve, poor fit]"}, {"smiles": "Cc1ccc(-n2nc(CO)c(C(=O)NCC(c3ccccc3)c3ccccc3)n2)cc1", "Potency": "inconclusive: 141 µM [inhibitor, partial curve, poor fit]"}, {"smiles": "Cc1[nH]n(-c2ccccc2)c(=O)c1/C=N/n1c(C)nc2ccccc2c1=O", "Potency": "inactive"}, {"smiles": "Cc1ccc(C(=O)N2CCCCC2C(=O)Nc2cccc(-c3nnc(C)s3)c2)cn1", "note": "(configuration not stated)", "Potency": "inactive"}, {"smiles": "COc1ccccc1C(=O)OCCCN=C1NS(=O)(=O)c2ccccc21", "Potency": "inconclusive: 112 µM [inhibitor, partial curve, poor fit]"}, {"smiles": "Cc1ccc(S(=O)(=O)N2C[C@@H]3OCC(=O)N(Cc4ccc(F)cc4)[C@@H]3C2)cc1", "Potency": "inconclusive: 56.2 µM [inhibitor, partial curve, poor fit]"}, {"smiles": "CC(C)OC(=O)C(CC(=O)O)NCc1ccccc1", "note": "(configuration not stated)", "Potency": "inconclusive: 3.55 µM [inhibitor, full curve, poor fit]"}, {"smiles": "Cc1ccc(O)c(NC(=O)c2noc3c2CCCCC3)c1", "Potency": "inactive"}, {"smiles": "O=C(Nc1ccc2c(c1)OCO2)c1n[nH]c(=O)c2ccccc12", "Potency": "inconclusive: 0.199 µM [inhibitor, full curve, poor fit]"}, {"smiles": "Cc1ccc(C)c(/C=C(\\C(=O)O)c2ccc(S(=O)(=O)N3CCCCC3)s2)c1", "Potency": "inconclusive: 70.8 µM [inhibitor, partial curve, poor fit]"}]}]}
